The results in this text go back to US20070238638.

Chains of the proteins cited; added tags and fusions are not shown. A line that says so, or that is headed by a name, gives the form on record, which may keep a tag or linker. Residues count along the entry.
UniProt P42224, 2-750: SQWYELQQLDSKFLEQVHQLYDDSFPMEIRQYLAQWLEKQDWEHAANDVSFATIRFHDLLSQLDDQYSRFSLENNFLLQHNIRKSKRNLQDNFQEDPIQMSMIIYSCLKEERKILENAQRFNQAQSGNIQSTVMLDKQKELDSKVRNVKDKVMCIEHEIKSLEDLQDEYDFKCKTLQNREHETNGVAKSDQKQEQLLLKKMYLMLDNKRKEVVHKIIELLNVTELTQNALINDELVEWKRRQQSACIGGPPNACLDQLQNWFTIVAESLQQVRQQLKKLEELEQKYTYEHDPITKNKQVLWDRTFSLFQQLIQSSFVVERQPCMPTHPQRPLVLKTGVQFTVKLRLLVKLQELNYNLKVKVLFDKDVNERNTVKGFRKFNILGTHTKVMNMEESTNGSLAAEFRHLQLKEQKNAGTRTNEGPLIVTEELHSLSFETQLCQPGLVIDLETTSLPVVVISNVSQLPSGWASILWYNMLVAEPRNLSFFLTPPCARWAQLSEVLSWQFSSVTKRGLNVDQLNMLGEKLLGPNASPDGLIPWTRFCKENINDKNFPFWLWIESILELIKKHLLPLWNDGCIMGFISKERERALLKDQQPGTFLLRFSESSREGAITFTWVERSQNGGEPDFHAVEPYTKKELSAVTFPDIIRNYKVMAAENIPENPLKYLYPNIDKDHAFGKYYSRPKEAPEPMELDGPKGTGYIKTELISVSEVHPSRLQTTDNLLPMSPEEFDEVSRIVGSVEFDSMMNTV
NF-kappaB p50/p65 heterodimer (Homo sapiens), one chain, as listed by the source: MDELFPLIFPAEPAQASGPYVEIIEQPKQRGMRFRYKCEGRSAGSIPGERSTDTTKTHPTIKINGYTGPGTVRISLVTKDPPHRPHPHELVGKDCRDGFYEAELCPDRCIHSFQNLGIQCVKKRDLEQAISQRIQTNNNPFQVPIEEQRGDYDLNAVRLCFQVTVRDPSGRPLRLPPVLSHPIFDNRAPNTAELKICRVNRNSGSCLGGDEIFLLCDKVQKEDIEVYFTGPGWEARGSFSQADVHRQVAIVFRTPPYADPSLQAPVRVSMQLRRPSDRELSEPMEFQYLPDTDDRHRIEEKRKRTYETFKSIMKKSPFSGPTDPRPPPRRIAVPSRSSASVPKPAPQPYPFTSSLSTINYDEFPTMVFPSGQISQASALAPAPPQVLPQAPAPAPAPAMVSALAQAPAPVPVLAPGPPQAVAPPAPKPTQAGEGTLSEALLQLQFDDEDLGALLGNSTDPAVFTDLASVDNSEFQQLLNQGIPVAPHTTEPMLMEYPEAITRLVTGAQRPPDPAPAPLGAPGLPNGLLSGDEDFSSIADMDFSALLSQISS

At least one result comes from cells or an extract, where the contact may be indirect. For some assays here: A weaker result is weaker than the reference pair of the same experiment. For some assays here: Protein sequences can lack the tags named with them.

Common to all, as to assay: EMSA
For orientation: Mobility shift assays separate free from complexed probe on a gel.

One data set addresses STAT1 (Homo sapiens) (UniProt P42224). Conditions: anti-STAT1 abolished C1; IFN-gamma only, not IFN-alpha, IFN-beta or poly(I-C); protein in an extract; label: 32P.
The target in data set [1] is T1, NF-kappaB p50 homodimer (Homo sapiens) (UniProt P19838).
T1 sequence (looked up, limits assumed): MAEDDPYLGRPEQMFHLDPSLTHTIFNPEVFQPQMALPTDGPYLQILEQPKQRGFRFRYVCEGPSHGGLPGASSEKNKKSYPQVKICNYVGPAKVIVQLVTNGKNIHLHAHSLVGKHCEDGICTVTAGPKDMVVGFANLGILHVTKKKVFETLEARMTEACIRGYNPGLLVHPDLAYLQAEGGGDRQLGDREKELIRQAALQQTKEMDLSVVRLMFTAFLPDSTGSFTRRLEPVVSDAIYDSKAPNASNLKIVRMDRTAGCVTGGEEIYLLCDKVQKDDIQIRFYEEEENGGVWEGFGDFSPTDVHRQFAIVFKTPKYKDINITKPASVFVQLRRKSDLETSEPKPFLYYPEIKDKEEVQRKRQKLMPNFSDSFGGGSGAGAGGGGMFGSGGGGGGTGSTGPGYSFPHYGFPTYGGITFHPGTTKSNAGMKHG
The following applies: protein in an extract, protein details: endogenous, HT-29 nuclear extract, label: 32P.

Data set [2] deals with NF-kappaB p50/p65 heterodimer (Homo sapiens). The following applies: protein in an extract, protein details: endogenous, HT-29 nuclear extract, label: 32P.
Another data set concerns the target T2, IRF-2 (Homo sapiens) (UniProt P14316).
T2 sequence (looked up, limits assumed): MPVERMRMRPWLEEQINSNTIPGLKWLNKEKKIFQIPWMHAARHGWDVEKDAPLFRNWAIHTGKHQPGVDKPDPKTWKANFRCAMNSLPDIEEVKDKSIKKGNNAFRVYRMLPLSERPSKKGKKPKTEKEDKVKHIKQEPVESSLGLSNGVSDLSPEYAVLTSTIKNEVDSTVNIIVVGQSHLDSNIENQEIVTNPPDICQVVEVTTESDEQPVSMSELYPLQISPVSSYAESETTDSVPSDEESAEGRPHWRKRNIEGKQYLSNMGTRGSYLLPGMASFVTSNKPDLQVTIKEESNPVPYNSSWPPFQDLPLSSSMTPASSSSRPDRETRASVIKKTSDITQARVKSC
Conditions: supershift; IFN-gamma treated; protein in an extract; label: 32P.

The target of another data set is T3, IRF-1 (Homo sapiens) (UniProt P10914).
T3 sequence (looked up, limits assumed): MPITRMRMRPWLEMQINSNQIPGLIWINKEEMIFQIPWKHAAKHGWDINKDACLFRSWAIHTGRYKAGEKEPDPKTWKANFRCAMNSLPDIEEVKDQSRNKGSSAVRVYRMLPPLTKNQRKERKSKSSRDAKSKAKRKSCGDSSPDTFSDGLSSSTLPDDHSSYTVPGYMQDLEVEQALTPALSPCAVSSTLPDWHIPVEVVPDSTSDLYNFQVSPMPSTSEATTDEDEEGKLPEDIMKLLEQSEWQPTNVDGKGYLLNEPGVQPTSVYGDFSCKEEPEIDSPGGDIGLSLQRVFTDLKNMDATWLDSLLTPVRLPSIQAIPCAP
The following applies: protein in an extract; label: 32P.

Another data set addresses p53 wild type (UniProt P04637). The following applies: in presence of anti-p53 antibody; protein in a lysate after overexpression; protein details: baculovirus, Sf9 extract; label: 32P.
Setting [3] is: poly(I-C) treated only, no complex after IFN-gamma, less than kappaB1.

Take “CGCCCATTCCTGGAAACTGG (double strand) [Bak GAS]”: in the data set with STAT1 (Homo sapiens), the binding result is “binds”. Regarding “AGTAGAGACGGGGTTTCACCATGTTA (double strand) [Bak kappaB2]”, the binding result in data set [1] (setting [3]) and in data set [2] (setting [3]) was “binds more weakly” throughout. As to “GCAAACTGAAAGTGAAACAGCT (double strand) [Bak ISRE]”, the binding result with IRF-2 (Homo sapiens) and with IRF-1 (Homo sapiens) was “binds” throughout.

For “CAGGTTCAAGGGATTCTCCTGCCTCA (double strand) [Bak kappaB1]”, the binding result in data set [1] (C1 by supershift, IFN-gamma or poly(I-C) treated, poly(I-C) stronger) was “binds”; in data set [2] (C2 by supershift, IFN-gamma or poly(I-C) treated, poly(I-C) stronger), “binds”. As to “GATCCAAAGTGGGCGGGACATGCTCCTGGGCCTGGCCCACCCAGATCACCCCTG / GATCCAGGGGTGATCTGGGTGGGCCAGGCCCAGGAGCATGTCCCGCCCACTTTG [Bak p53 site]”, the binding result with p53 wild type is recorded as “binds”.
